Reference: PubChem BioAssay AID2685 (National Center for Advancing Translational Sciences (NCATS), 2010)
In all, about 320,000 compounds went through this assay and about 2,100 (0.66%) were called active. Inconclusive means that the source gave no clear call. Such entries were picked first, then a sample of the others. Calls follow the shape of the dose curve; as a rule, active = well fitted inhibition curve with a large enough effect in the signal ratio, with a control signal flat (not every such curve was filed as active); inconclusive = small, poorly fitted or top-dose-only effect, or effect the other way, or a change in a side signal; inactive = flat fitted curve, though single readings scatter; the % refers to the signal ratio. Where the call is inconclusive, the potency comes from a doubtful curve fit.
% is scaled to controls: 0 for no effect and ±100 for the full control effect; potency is read from the fitted curve at half-maximal effect.

Experiment: qHTS Assay for Lipid Storage Modulators in Drosophila S3 Cells
Settings: BODIPY lipid droplet fluorescence, 18-24 h, cells fed with added oleic acid; lipid storage change, negative = inhibition: at 46.1 µM (top of the series) unless noted
In short: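 Laser-scanning cytometry quantifies lipid droplet accumulation (500–530 nm total intensity; droplet/cell object ratio) in oleic acid-fed (400 uM added) Drosophila S3 cells treated with a concentration series. 20 uM Triacsin C defined 100% inhibition.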
In the case of CC(=O)N1CCN(c2ccc(NC(=O)c3ccco3)cc2Cl)CC1, the lipid storage change, negative = inhibition is reported as inconclusive: 13.3%. For CCN(CC(=O)NC(C)(C)C)C(=O)c1ccccc1SCC(=O)NC1CCCCCCC1, the lipid storage change, negative = inhibition was inconclusive: -41.1%. With Cc1ccc(-c2[nH]c3ccccc3c2SCCN)cc1 the lipid storage change, negative = inhibition was inconclusive: 29.1%. For CCN(CC)C(CNS(=O)(=O)c1ccc(Cl)cc1)c1ccccc1 (stereo unspecified), the Potency was inconclusive: 0.0046 µM [falling, full curve, poor fit]. In the case of Cc1ccc(NC(=O)c2ccc3nc(N4CCOCC4)sc3c2)c(Cl)c1, the Potency is reported as inconclusive: 29.1 µM [activator, single point]. In the case of CN1CC2(Cc3c1ccc1ccccc31)C(=O)OC(C)(C)OC2=O, the lipid storage change, negative = inhibition is reported as inconclusive: 3.27%. In the case of CSc1nc2sc3c(c2c(=O)n1C)CCCC3, the lipid storage change, negative = inhibition is reported as inconclusive: 15.3%. For Cc1ccc(O)c(C2=Nc3ccccc3N=C(c3ccc([N+](=O)[O-])cc3)C2)c1, the lipid storage change, negative = inhibition was inconclusive: 14%. In the case of Cc1ccc(N(C(C)C(=O)N2CCCCC2)S(C)(=O)=O)cc1C (stereo unspecified), the lipid storage change, negative = inhibition is reported as inconclusive: -100%. For Cc1ccc(NC(=O)Cc2nnc(SCC(=O)Nc3ccccc3)n2C)cc1, the Potency was inconclusive: 16.4 µM [activator, single point]. With C#CCOc1ccc(/C=N/NC(=O)c2cccnc2)cc1OCC the lipid storage change, negative = inhibition was inconclusive: 13%. For CCN(C(=O)CSc1ncccn1)c1c(N)n(Cc2ccccc2)c(=O)[nH]c1=O, the lipid storage change, negative = inhibition was inconclusive: 27.9%. In the case of COCc1c(C(=O)NCC2COc3ccccc3O2)oc2ccccc12 (stereo unspecified), the lipid storage change, negative = inhibition is reported as inconclusive: 16.1%. In the case of Cc1ccc(S(=O)(=O)NC2c3cccc4cccc(c34)C2Sc2ncccn2)cc1 (stereo unspecified), the Potency is reported as inconclusive: 29.1 µM [falling, single point]. In the case of COc1ccc(NC(=O)CN(C)C(=O)/C=C/c2cn(-c3ccccc3)nc2-c2cccs2)cc1, the lipid storage change, negative = inhibition is reported as inconclusive: 46.8%. For NC(=O)N/N=C/c1c(F)c(F)c(F)c(F)c1F, the lipid storage change, negative = inhibition was inconclusive: -11.7%. With Cc1ccc(C2=NC(C(F)(F)F)(C(F)(F)F)c3c(n(-c4ccc(F)cc4)c(=O)[nH]c3=O)N2)cc1 the Potency was inconclusive: 29.1 µM [falling, single point]. In the case of O=C1CC(c2ccc(Cl)cc2)c2c(O)cc(O)cc2O1 (stereo unspecified), the lipid storage change, negative = inhibition is reported as inconclusive: -43.9%. For Cc1c(C(=O)NNC(=O)c2ccncc2)oc2ccccc12, the lipid storage change, negative = inhibition was inconclusive: -34.2%. In the case of CCN(Cc1cc2ccccc2[nH]c1=O)C(=O)C(C)C, the lipid storage change, negative = inhibition is reported as inconclusive: 5.09%. In the case of COc1ccc(OC)c(C(=O)c2coc3ccc(O)c(CN4CCOCC4)c23)c1, the Potency is reported as inconclusive: 0.651 µM [falling, full curve]. In the case of CCCS(=O)(=O)N1CCCC(C(=O)NCc2ccco2)C1 (stereo unspecified), the lipid storage change, negative = inhibition is reported as inconclusive: 10.5%. In the case of CC(=O)N1N=C(c2ccncc2)OC12CCCCC2, the lipid storage change, negative = inhibition is reported as inconclusive: 6.37%. For CN(CC(=O)N1CCN(c2ccccc2)CC1)C1CCCc2ccccc21 (stereo unspecified), the lipid storage change, negative = inhibition was inconclusive: -24.3%. In the case of O=C(CN1CCN(c2ccccc2F)CC1)c1ccc2c(c1)OCO2, the lipid storage change, negative = inhibition is reported as inconclusive: 21.7%. For O=c1cc(O)c(-c2cccc(C(F)(F)F)c2)c(Cl)[nH]1, the lipid storage change, negative = inhibition was inconclusive: 18.4%. With CC(C)[C@H](NC(=O)c1ccccc1Cl)C(=O)Nc1nc(-c2ccccn2)cs1 the lipid storage change, negative = inhibition was inconclusive: -44.5%. For C=CCN(C(=O)CCS(=O)(=O)c1cccc2nsnc12)c1ccccc1, the Potency was inconclusive: 6.51 µM [falling, partial curve, poor fit]. In the case of CC(=O)N1CCC2(CC1)C/C(=N\NC(=S)Nc1ccc(C)cc1)c1cc(O)ccc1O2, the lipid storage change, negative = inhibition is reported as inconclusive: 16.1%. With Cc1cccc(CC(=O)N2CCN(C(=O)c3ccco3)CC2)c1 the lipid storage change, negative = inhibition was inconclusive: 24.5%. For NC(=O)c1ccc(NC(=O)CSc2nnc(-c3ccncc3)n2Cc2ccco2)cc1, the lipid storage change, negative = inhibition was inconclusive: 13.4%. For O=C(N/N=C/c1nn(-c2ccccc2)cc1-c1ccccc1)c1ccncc1, the lipid storage change, negative = inhibition was inconclusive: -2.5%. For CC(=O)c1ccc(N2CCN(CN3C(=O)CC4(CCCC4)C3=O)CC2)c(F)c1, the lipid storage change, negative = inhibition was inconclusive: 16.4%. For CCc1nc(Nc2cccc(F)c2)c2oc3ccccc3c2n1, the lipid storage change, negative = inhibition was inconclusive: -15.1%. With CC1CCCCC1NC(=O)c1nn(C)c2c1CS(=O)(=O)c1ccccc1-2 (stereo unspecified) the lipid storage change, negative = inhibition was inconclusive: 18.7%. In the case of CCc1[nH]nc(C(=O)N/N=C/c2ccncc2)c1C, the Potency is reported as inconclusive: 0.58 µM [activator, full curve, poor fit]. For CCOc1ccc(C(=O)CC(NCc2cccs2)C(=O)O)cc1 (stereo unspecified), the lipid storage change, negative = inhibition was inconclusive: 23.2% [at 9.22 µM]. With CN(C)S(=O)(=O)Oc1ccccc1C(=O)Nc1ccc(F)cc1 the lipid storage change, negative = inhibition was inconclusive: -6.3%. In the case of O=C(NCCc1ccccc1)C1CCN(S(=O)(=O)N2CCC3(CC2)OCCO3)CC1, the Potency is reported as inconclusive: 1.16 µM [rising, full curve]. With Cc1nc2cncc(Br)c2n1C the lipid storage change, negative = inhibition was inconclusive: 26.4%. In the case of CCOC1CCCCC1NS(=O)(=O)c1ccc(Cl)cc1 (stereo unspecified), the lipid storage change, negative = inhibition is reported as inconclusive: -0.859%. For COC(=O)c1ccccc1OCC(=O)N1CCN(c2ccc(Cl)cc2)CC1, the lipid storage change, negative = inhibition was inconclusive: -0.203%. With Cn1cnnc1SCCC(=O)Nc1ccccc1 the lipid storage change, negative = inhibition was inconclusive: -5.04%. With c1cnc(N2CCN(c3nc4ccccc4n4cnnc34)CC2)nc1 the lipid storage change, negative = inhibition was inconclusive: -17.9%. With CCOC(=O)c1c(S(=O)(=O)Nc2ccc(F)cc2Cl)c(C)n(C)c1C the lipid storage change, negative = inhibition was inconclusive: -143%. In the case of COc1cccc(NC(=O)COC(=O)c2ccccc2SCC(=O)N2CCCC2)c1, the lipid storage change, negative = inhibition is reported as inconclusive: -37%. With COc1cccc(CN2CCNC(=O)C2CC(=O)NCCCC2CCCC2)c1OC (stereo unspecified) the Potency was inconclusive: 6.51 µM [activator, single point]. In the case of Cc1ccc(Cn2c(O)c(N=O)c3ccccc32)cc1, the Potency is reported as inconclusive: 18.4 µM [activator, single point]. For COc1ccc(C(C(=O)NC2CCCC2)N(Cc2cccnc2)C(=O)Cc2cccs2)c(OC)c1 (stereo unspecified), the Potency was active: 7.31 µM. In the case of O=C(N/C(=C\c1cccnc1)C(=O)N1CCOCC1)c1cccc(Br)c1, the lipid storage change, negative = inhibition is reported as inconclusive: 118%. With Cc1c(NC(=O)OCCNC(=O)Nc2ccccc2)sc(=S)n1C the Potency was inconclusive: 11.6 µM [falling, partial curve]. For COc1ccccc1-c1cc(C(=O)NCCCN2CCOCC2)no1, the Potency was inconclusive: 29.1 µM [activator, single point]. For Cc1ccc(NCN2C(=O)C3C4C=CC(C4)C3C2=O)cc1 (stereo unspecified), the Potency was inconclusive: 29.1 µM [activator, single point]. In the case of CC(C)(C)c1ccc(C(O)CCCN2CCC(C(O)(c3ccccc3)c3ccccc3)CC2)cc1 (stereo unspecified), the lipid storage change, negative = inhibition is reported as inconclusive: -6.62%. For O=Cc1cccn1Cc1ccc(Cl)cc1Cl, the lipid storage change, negative = inhibition was inconclusive: -43.3%. With CC(C)CN(C(=O)COC(=O)CCSc1ccc(F)cc1)c1c(N)n(Cc2ccccc2)c(=O)[nH]c1=O the Potency was inconclusive: 25.9 µM [falling, single point]. For CCOc1ccccc1CN1C(=O)NC(C)(c2ccccc2)C1=O (stereo unspecified), the lipid storage change, negative = inhibition was inconclusive: 20%. In the case of O=C(NN1C(=O)C2C3C=CC(C3)C2C1=O)C(O)c1ccccc1 (stereo unspecified), the lipid storage change, negative = inhibition is reported as inconclusive: -58.8% [at 0.369 µM]. In the case of CCN(CC)CCC(=O)N1c2ccccc2Sc2ccc(NC(=O)OC)cc21, the lipid storage change, negative = inhibition is reported as inconclusive: 5.61%. In the case of O=C(CCCN1C(=O)/C(=C/c2ccc(F)cc2)SC1=S)NCCCn1ccnc1, the Potency is reported as inconclusive: 0.731 µM [activator, single point]. In the case of COCc1ccc(C(=O)N2CCCC(N(C)Cc3ccccc3)C2)s1 (stereo unspecified), the Potency is reported as inconclusive: 3.26 µM [activator, full curve, poor fit]. With CCC(C)[C@H](NC(=O)OC(C)(C)C)c1nnc(SCc2c(C)[nH]c(=O)[nH]c2=O)o1 (stereo partly specified) the lipid storage change, negative = inhibition was inconclusive: 19.8%. For O=C(N/N=C/c1ccccn1)c1ccccc1, the lipid storage change, negative = inhibition was inconclusive: -10.3%. In the case of COc1ccc(C(=O)Cn2cnc3ccccc3c2=O)cc1OC, the Potency is reported as inconclusive: 2.59 µM [activator, partial curve]. In the case of COc1ccc(OCC(=O)NC(=S)Nc2ccc(S(=O)(=O)Nc3cc(OC)nc(OC)n3)cc2)cc1, the lipid storage change, negative = inhibition is reported as inconclusive: -9.13%. In the case of CCc1ccc(-n2c(=O)c3ccc(C(=O)NCCc4ccccc4)cc3n(CC(N)=O)c2=O)cc1, the Potency is reported as inconclusive: 29.1 µM [falling, single point]. For CC(C)C(NS(=O)(=O)c1cccs1)C(=O)NCc1ccccc1 (stereo unspecified), the Potency was inconclusive: 0.92 µM [activator, full curve]. In the case of CCOC(=O)CC1C(=O)NCCN1Cc1cccc(C(F)(F)F)c1 (stereo unspecified), the Potency is reported as inconclusive: 2.59 µM [activator, single point]. With CC(Oc1ccc(F)cc1)C(=O)NN (stereo unspecified) the Potency was inconclusive: 20.6 µM [activator, single point]. For O=S(=O)(NCC1CCCO1)c1cccc(S(=O)(=O)N2CCCC2)c1 (stereo unspecified), the lipid storage change, negative = inhibition was inconclusive: 39%. For Cc1cc(C)n(C(=O)CCCn2cc([N+](=O)[O-])cn2)n1, the lipid storage change, negative = inhibition was inconclusive: 4.18%. For Cc1ccc(OC(C)C(=O)Nc2ccccc2C(=O)NCc2cccnc2)cc1C (stereo unspecified), the Potency was inconclusive: 8.2 µM [falling, partial curve]. For Cc1ccc(NC(=S)NCc2ccccc2)cc1[N+](=O)[O-], the lipid storage change, negative = inhibition was inconclusive: -25.4%. For O=C(Nc1nnc(S(=O)(=O)N2CCOCC2)s1)c1cccc(F)c1, the lipid storage change, negative = inhibition was inconclusive: -15.9%. In the case of CC(C)CCN(CC(=O)NC1CCCC1)C(=O)C(=O)Nc1ccc2c(c1)OCCO2, the Potency is reported as inconclusive: 25.9 µM [activator, single point]. With COc1ccc(Nc2nc(N)nc(COc3ccc(OC)cc3)n2)cc1 the Potency was inconclusive: 1.84 µM [falling, full curve, poor fit].
